Results: PubChem BioAssay AID1347426 (Functional Genomics Laboratory (NCATS/FGL), 2020)
In all, about 31,000 sequences went through this assay and about 1,400 (4.5%) were called active.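 How the source made its calls: active means median seed-adjusted z-score above 1 or below -1; inactive means the rest.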 This is one part of the list.

experiment: Novel Modifiers of Survival Motor Neuron (SMN) Protein: Gene Identification via Genome-wide siRNA Screen; conditions: HEK293T SMN2-luciferase reporter, siRNA knockdown, 72 h; actives lie on both sides;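 further: luminescence tracks full-length SMN protein made from the SMN2 reporter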
In short: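 Steps: spot 1 pmol siRNA, add Lipofectamine RNAiMax in serum-free DMEM, seed HEK293T SMN2–luciferase reporter cells; incubate 72 h at 37 °C; add ONE-Glo; normalize luminescence to control siRNA, log10, MAD. Candidates: |MAD| > 1.0.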

Sequence | median seed-adjusted z-score
AGGACUGCCUGAUUGACAATT against RXRA | inactive: 0.304
CACUCACUGUUCCUAUCAATT against STAMBPL1 | inactive: 0.13
GGUUAAAGCUGAAGCUCAATT against XRCC6 | inactive: 0
CAAGAGGGUUUUUACCAUATT against SEC11C | inactive: 0.508
ACUGUUUCCUCACCAAGAATT against PTAFR | inactive: 0.302
GGACAAAUCUUUGUGCAUUTT against PES1 | inactive: 0.44
GCCUAGUGUUCAUCCUGUATT against SLC6A2 | inactive: 0
CCAUUUGAAUGUUCGUAAUTT against FDFT1 | inactive: -0.143
AGACUACGGUGGACAAACUTT against SLC8A3 | inactive: -0.0434
GGAAUAGAGAAGCUCCUAATT against NID2 | inactive: 0.283
CAACCUACUUAGAUGACAATT against SLCO5A1 | inactive: 0.272
GUGGUCCUGUGACUGCUGATT against KCNK7 | inactive: 0.0523
CAUGAACCCUUGGUAGAUATT against TBRG1 | active: -1.47
CCAUUACAGAGGGAGUUCATT against NRBP1 | active: -1.13
CAUUUCACCCAAAACCUUUTT against ZNF718 | inactive: 0.0564
GCAUUGUGAAAGUAAUAGATT against UTX | inactive: 0.157
GAAGUCAACUUUGACCAUUTT against STK32B | inactive: 0.683
CAAUAUGACGAGCUCCAAATT against RNASE9 | inactive: 0.188
UCCUCUCUCUGGAUCUUAATT against TRIM7 | inactive: -0.845
GCUUUAAGUUUAAGGAGUATT against PIP4K2B | inactive: 0.17
GAAUGUCCCUGGAGUACUATT against DUSP13 | inactive: -0.772
GCAACGAAAUGAACCUCUUTT against PCDH10 | inactive: -0.488
UCUUCUCCCUGAUAAAGUATT against SLC6A13 | inactive: 0.267

Sequence | median seed-adjusted z-score
GCAAGCUAUUGCUAACUAUTT against ZNF416 | inactive: 0.668
GCUACUUAAUCACCACCGATT against NAGK | inactive: 0.446
GCACGGAAAUUCUACAAGATT against ABCA4 | active: -1.09
GGAUUCUGUUCCUUAGGUUTT against BSG | inactive: 0.211
GAUUACUACUUGACGAAGATT against TRIM14 | inactive: -0.0636
GCGGAACACGAAGAAGUAATT against TMPRSS11E | inactive: 0.0512
GAACUGCAAUGUUUGCGAUTT against ZZEF1 | inactive: 0.167
CAGUCUUUAUGCAAUGGAATT against TYR | inactive: 0.131
GAAGUUUACCAAAUUCGCATT against GPR137C | inactive: -0.405
CAGCUGAAAUCGAUGAAGATT against NACA | inactive: 0.117
CUAUUACUACUACAACUGATT against HTRA4 | inactive: 0.838
CGAUGCUUGUCAGUCCCAATT against NOTCH4 | inactive: -0.384
CAUUCGUCCGGGACUAAUATT against RBM16 | inactive: 0.279
GGCUGUACAUUGAGCAGAATT against GPER | inactive: 0.157
CCAAAGCUCAGAGUAUUUATT against LCOR | inactive: -0.0435
GAUUGUAUCCAGAAUCUCATT against ENPP1 | inactive: -0.273
CGGCCGAAGUAGUAAAAGATT against ADA | inactive: -0.242
UCAGGACCCUGUACACCCATT against GPS1 | inactive: 0.205
GAUCAUACCUUGAAAAUUATT against ROBO1 | inactive: -0.096
GGAUCGAGUUUGAUAACGATT against ITGA6 | inactive: -0.224
GGAUGAUAGAGAACGAAGATT against PARD3 | inactive: -0.116
CCGCUUGAGUUCAACAAGATT against C10orf2 | inactive: 0.31
AGAUGCUGCUUGACAUAAATT against KRT15 | inactive: 0.756

Given as a markdown table: part of the list above.

| Sequence | median seed-adjusted z-score |
| --- | --- |
| GAUUGUAUCCAGAAUCUCATT against ENPP1 | inactive: -0.273 |
| CGGCCGAAGUAGUAAAAGATT against ADA | inactive: -0.242 |
| UCAGGACCCUGUACACCCATT against GPS1 | inactive: 0.205 |

Continued.

Sequence | median seed-adjusted z-score
CCAUCAACACUGGUAAGAATT against KIF11 | inactive: -0.381
CCCAUUUCAUGAGUCGCAATT against INO80 | inactive: 0.0546
ACACGGAUAUUUACAGAGATT against SLC26A6 | inactive: 0.316
GAGUAAAGGGUGUUACUAUTT against YEATS4 | inactive: 0.905
GGUAAGAGCUUUAAUCAGATT against ZNF235 | inactive: 0.348
CUAGCAACAUGGACAUAUUTT against STS | inactive: -0.392
AGAUGUCGCUGUGGACUUUTT against ZNF317 | inactive: 0.087
GGAUAACAUCAUACCGUUUTT against SLC12A6 | inactive: 0.155
CAAGGAGCAUAAGUACAAATT against F12 | inactive: 0.345
GACAAGAUGCUGAAACAAATT against GSG2 | inactive: 0.804
UGGAAGACCUGAAAACAGATT against PMM1 | inactive: -0.597
GCGCCGAUAUAAUGCUCUUTT against PATZ1 | inactive: -0.57
CGAUGGAUCUGAUGGAGCATT against APOA5 | inactive: -0.791
GAGUGUCUGAAAAAGUUCATT against CAMK2B | inactive: 0.0305
GCAUGUCUUUGCCUAUAGATT against PAM | inactive: 0
CUACCACUACAAGACCUAUTT against B4GALT7 | inactive: -0.00294
AGAUUACCCUGGGCCUUCATT against GCDH | inactive: -0.0391
GGAUCACUGAUGUCAUUAUTT against DHTKD1 | inactive: 0.591
CCUUCGCCCAUAGCCUUAATT against ATP1B4 | inactive: 0.664
GGAAUACCGUUUACUGCAATT against ERCC5 | inactive: -0.0811
CCAUAGCCUUUAUUAUUCATT against PTPLB | inactive: 0.0451
GGGAAAUAGUGAGAGCCUUTT against ZNF101 | inactive: 0.336
GGAAGGCAUUGUCAGAUGATT against CYP4F12 | inactive: -0.564
